# Measurements from PubChem BioAssay AID493014 (National Center for Advancing Translational Sciences (NCATS), 2011).
# The list shows a part of the results. The main result of the screen is listed elsewhere. These columns were measured beside it and carry no call. The list favours compounds with an active or inconclusive main result. The note in brackets gives the kind of curve behind each potency; many fits are weak.
# Experiment: qHTS Assay to Find Inhibitors of Chronic Active B-Cell Receptor Signaling
# Settings: ABC-DLBCL IkBa-CBG/CBR reporter, luminescence ratio (green luciferase fused to IkBa over red control in TMD8 lymphoma cells), 4 h
# Source text: NIH Molecular Libraries Probe Production Network [MLPCN] NIH Chemical Genomics Center [NCGC] MLPCN Grant: 1 R03 DA031086-01A1 PI Name: Dr. R. Eric Davis NCGC Assay Overview: Diffuse large B-cell lymphoma (DLBCL) is the most common category of non-Hodgkin lymphoma, with ~20,000 new cases per year in the United States. DLBCL should be regarded as a collection of different neoplasms. Microarray gene expression analysis has defined two principal types of DLBCL, named for their similarity to normal B cell stages or activation states: a germinal center B-cell (GCB) type, and an activated B-cell (ABC) type. […] Following the addition of doxycycline to induce expression of the luciferases, the green luminescence in control cultures rises only slowly because the CBG fusion partner IkappaBalpha is targeted by IKK activity for rapid degradation. In contrast, green luminescence rises rapidly in the presence of proteasome inhibitors or IKK inhibitors. The rise in red luminescence of CBR is not affected by proteasome or IKK inhibitors, and serves as normalization for cell number and nonspecific effects. […]
# NCGC Assay Protocol Summary: Cells were seeded in 1536-well plates at 5000 cells/4uL in IMDM medium containing 0.5% FBS, w/o phenol red, 1% penicillin/streptomycin. […] The plates were measured on a ViewLux plate reader for green luminescence (540/20 nm filter) and red luminescence (618/8 nm filter). […]
SMILES,AC50 (measured here: IkBa-CBG green luminescence),"AC50 (measured here: CBR red luminescence, cell number)"
Cc1c(CC(=O)O)c(=O)oc2c(C)c3occ(-c4ccc(Br)cc4)c3cc12,"14.1 µM [rising, partial curve, poor fit]",–
COc1cc(/C=C2\C(=N)N3N=C(S(C)(=O)=O)SC3=NC2=O)ccc1OCCOc1ccccc1C,–,"0.708 µM [rising, full curve, poor fit]"
